Measured values from PubChem BioAssay AID1671190 (National Center for Advancing Translational Sciences (NCATS), 2021).
Several values for one entry are separate records, joined by “and”; a condition that tells them apart may be missing. Equal entries are not always repeated. Screen size: about 580,000 compounds; about 6,100 (1.1%) were called active. Inconclusive means that the source gave no clear call. Such entries were picked first, then a sample of the others. The call rests on the fitted dose curve; in most records, active means well fitted inhibition curve with a large enough effect; inconclusive means small, poorly fitted or top-dose-only effect, or another doubt; inactive means no such curve, though single readings can be large or run the other way. Potencies of inconclusive entries are doubtful fits and often do not repeat.

Amino acid sequences for entries named in this document (tags omitted). A change or cut given only in a name is not applied to a line headed by its entry.
UniProt P18054: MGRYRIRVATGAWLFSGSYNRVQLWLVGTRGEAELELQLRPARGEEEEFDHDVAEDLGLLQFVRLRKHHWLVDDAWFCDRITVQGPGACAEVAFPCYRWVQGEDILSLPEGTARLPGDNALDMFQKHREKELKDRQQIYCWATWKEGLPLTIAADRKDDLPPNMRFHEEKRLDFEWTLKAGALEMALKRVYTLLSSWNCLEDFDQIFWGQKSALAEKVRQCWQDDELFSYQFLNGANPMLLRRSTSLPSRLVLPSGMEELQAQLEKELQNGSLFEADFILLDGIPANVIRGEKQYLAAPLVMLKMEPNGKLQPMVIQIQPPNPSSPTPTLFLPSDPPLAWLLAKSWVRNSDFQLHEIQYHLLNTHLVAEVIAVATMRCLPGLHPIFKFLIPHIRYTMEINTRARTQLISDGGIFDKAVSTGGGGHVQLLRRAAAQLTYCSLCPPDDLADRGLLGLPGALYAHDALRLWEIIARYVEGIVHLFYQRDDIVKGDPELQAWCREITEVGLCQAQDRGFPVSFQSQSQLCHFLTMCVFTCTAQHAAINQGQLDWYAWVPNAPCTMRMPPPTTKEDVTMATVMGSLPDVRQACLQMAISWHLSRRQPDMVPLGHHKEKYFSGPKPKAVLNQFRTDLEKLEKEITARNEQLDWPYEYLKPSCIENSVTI

These compounds were tested against Polyunsaturated fatty acid lipoxygenase ALOX12 (Homo sapiens) (UniProt P18054) (assay: Primary qHTS assay for inhibitors of human arachidonate 12S-lipoxygenase (ALOX12): Round 2). Conditions: purified 12hLO, xylenol orange hydroperoxide absorbance; activity change, negative = inhibition: at 108 µM (top of the series) unless noted.
How it was run: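 Purified human 12hLO (150 nM final) in 25 mM Hepes, 0.01% Triton X-100, pH 7.0 was preincubated 15 min at room temperature with compound. Then 40 uM arachidonic acid was added, 30 min. Hydroperoxide was read by Fe-XO absorbance ratio 573/405 nm.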
On the % scale 0 is the no-effect control and ±100 the full control effect; potency means the concentration at half of the fitted maximal effect.

| SMILES | Potency | activity change, negative = inhibition |
| --- | --- | --- |
| CCN(C(=O)Cn1c(=O)n(CC)c(=O)c2sccc21)c1ccccc1 | inconclusive: 7.94 µM [inhibitor, partial curve, poor fit] | – |
| Cc1[nH]c2ccccc2c1C(=O)/C(C#N)=C\c1c(Cl)cccc1Cl | inconclusive: 17.8 µM [inhibitor, full curve, poor fit] | – |
| COc1cncc(CN2CCc3ncc(C(=O)Nc4ccccc4)n3CC2)c1 | – | inactive: 63.6% [at 176 µM] |
| COc1ccccc1/C=C/C(=O)Nc1ccc(S(=O)(=O)Nc2cc(C)nc(C)n2)cc1 | inconclusive: 31.6 µM [inhibitor, partial curve] | – |
| CC(=O)Nc1ccc(C(=O)N(CCc2ccccc2)Cc2ccccc2)s1 | inconclusive: 141 µM [inhibitor, single point] | – |
| CCOc1ccc2c(n1)CCN(C(=O)Cc1cccc(C)c1)C2 | – | inactive: 0.197% |
| O=C(Cn1cnc([N+](=O)[O-])n1)N/N=C/c1ccccc1O | – | inactive: -11.3% |
| CCN(CCO)Cc1cn[nH]c1-c1ccc(C)c(C)c1 | inconclusive: 0.708 µM [inhibitor, full curve] | – |
| CC(=O)Nc1ccc(NC(=O)C(=O)NCC(c2ccco2)N2CCc3ccccc3C2)cc1 (configuration not stated) | inconclusive: 7.08 µM [inhibitor, full curve, poor fit] | – |
| O=S1(=O)CCOC[C@H](Cc2ccccc2)N1Cc1cccc(Cl)c1 | – | inactive: 10.5% |
| CCOC(=O)c1cc2c(=O)n3ccccc3nc2n(Cc2ccco2)c1=NC(=O)c1ccc(OCC)cc1 | – | inactive: -28.7% |
| Cn1c(=O)n(CCCc2ccccc2)c(=O)c2c1nc1n2CCN1c1ccc(F)cc1 | inconclusive: 63.1 µM [inhibitor, partial curve, poor fit] | – |
| Nc1ccc(S(=O)(=O)N2CCc3ccccc32)cc1 | – | inactive: 0% |
| O=C(c1ccco1)N1CCN(C(=O)c2cc(-c3ccncc3)nc3ccc(Br)cc23)CC1 | inconclusive: 6.31 µM [inhibitor, full curve, poor fit] | – |
| CCCCN(Cc1ccccc1)C(=O)C1CCN(C(=O)c2csc(Nc3ccc(C)cc3)n2)CC1 | inconclusive: 0.501 µM [inhibitor, partial curve, poor fit] | – |
| Cc1cccnc1NC(=S)Nc1ccc(F)cc1F | active: 15.8 µM | – |
| O=C(c1cc(-c2ccc(O)cc2)on1)N1CCN(c2ccccc2)CC1 | inactive | – |
| CC(NC(=O)Cn1cc(C(=O)C2CC2)c2ccccc21)c1ccccc1 (configuration not stated) | – | inactive: 24.1% |
| CCOCC(O)COc1ccc(NC(=O)CC[S+](C)C)cc1 (configuration not stated) | inconclusive: 2.17 µM [inhibitor, full curve] | – |
| COc1cccc(C(=O)Nc2sc(C(C)C)cc2C(N)=O)c1OC | inconclusive: 112 µM [inhibitor, partial curve, poor fit] | – |
| Cc1cc2c(cc(C(=O)OCC(=O)NCc3ccco3)n2C)s1 | – | inactive: 30.3% |
| C=CCO[C@@H]1CCN2C(=O)c3cc(-c4cccc(C(F)(F)F)c4)ccc3NC(=O)[C@H]12 | inconclusive: 25.1 µM [inhibitor, full curve, poor fit] | – |
| COc1ccc2c(C(F)(F)F)cc(SCC(=O)N3CCCC3)nc2c1 | – | inactive: 19.8% |
| CCCC(O)(c1ccc(Br)cc1)C(CN1CCOCC1)c1ccc(Cl)cc1 (configuration not stated) | inconclusive: 50.1 µM [inhibitor, partial curve, poor fit] | – |

Arranged by SMILES length (ascending): some entries from above.

| SMILES | Potency | activity change, negative = inhibition |
| --- | --- | --- |
| CCOCC(O)COc1ccc(NC(=O)CC[S+](C)C)cc1 (configuration not stated) | inconclusive: 2.17 µM [inhibitor, full curve] | – |
| CC(NC(=O)Cn1cc(C(=O)C2CC2)c2ccccc21)c1ccccc1 (configuration not stated) | – | inactive: 24.1% |
| Cn1c(=O)n(CCCc2ccccc2)c(=O)c2c1nc1n2CCN1c1ccc(F)cc1 | inconclusive: 63.1 µM [inhibitor, partial curve, poor fit] | – |

The list goes on.

| SMILES | Potency | activity change, negative = inhibition |
| --- | --- | --- |
| O=C(c1ccc(OC2CCN(C/C=C/c3ccccc3)CC2)cc1)N1CCCCC1 | inconclusive: 35.5 µM [inhibitor, partial curve, poor fit] | – |
| COCCNC(=O)c1ccc(-c2ncc3cnc(-c4cccc(F)c4)cn23)cc1 | inconclusive: 3.55 µM [inhibitor, full curve, poor fit] | – |
| COc1ccc(CN2COc3ccc4c(-c5ccccc5)cc(=O)oc4c3C2)cc1OC | – | inconclusive: -33.6% [inhibitor] |
| O=C(N/N=C/c1c[nH]c2ccccc12)c1ccccc1 | – | inactive: 37.7% |
| O=C(CSCc1cnn(-c2ccccc2)c1-n1cccc1)NCc1cccnc1 | – | inactive: -6.15% |
| CCS(=O)(=O)N1N=C(c2ccccc2)CC1c1ccc2nccnc2c1 (configuration not stated) | inactive | – |
| COc1ccc(NC(=O)CN2C(=O)C(C)Oc3ccc(C)cc32)cc1 (configuration not stated) | – | inactive: -2.36% |
| O=C1CC(c2ccccc2)N(C(=O)Nc2ccccc2)CCCCCN1 (configuration not stated) | inconclusive: 89.1 µM [inhibitor, partial curve, poor fit] | – |
| Cc1ccc(S(=O)(=O)NCc2ccc3c(c2)OCO3)cc1 | inconclusive: 100 µM [inhibitor, partial curve, poor fit] | – |
| CC(CCN1CCC(CN2C(=S)NCC2Cc2ccccc2)CC1)c1ccccc1 (configuration not stated) | inconclusive: 22.4 µM [inhibitor, partial curve, poor fit] | – |
| Cc1ccc(C)c(N2CCN(CCCNC(=O)Nc3ccc(Cl)cc3)CC2)c1 | inconclusive: 100 µM [inhibitor, single point] | – |
| O=C1/C(=C/c2ccccc2)CN(C(=O)CCN2CCOCC2)C/C1=C\c1ccccc1 | inconclusive: 15.8 µM [inhibitor, full curve, poor fit] | – |
| Cc1cccc(NC(=O)C2CCCN(c3nc4ccccc4s3)C2)c1C (configuration not stated) | – | inactive: -4.43% |
| O=C(CN1CCN(Cc2cccs2)CC1)Nc1cccc2nsnc12 | – | inactive: 3.6% |
| COc1ccc(/C=N/Nc2ncc(-c3ccccc3)cn2)c(OC)c1 | – | inactive: -18.5% |
| CN1CCN(C(NC(=O)c2cccs2)C(=O)c2ccccc2)CC1 (configuration not stated) | inconclusive: 126 µM [inhibitor, partial curve, poor fit] | – |
| COc1cccc(NC(=O)CN(C)C(C)C(=O)N2CCCCC2)c1 (configuration not stated) | inconclusive: 0.794 µM [inhibitor, full curve, poor fit] | – |
| COc1ccc(C2=C(CN(C)C)C(c3ccccc3)c3ccccc3O2)cc1 (configuration not stated) | inconclusive: 56.2 µM [inhibitor, partial curve, poor fit] | – |
| Cc1ccc(-c2csc3nnc(SCC(=O)N4CCN(Cc5ccccc5)CC4)n23)cc1 | – | inactive: 4.9% |
| CSc1ccccc1C(=O)Nc1cccc([N+](=O)[O-])c1C | – | inactive: 1.74% |
| CCOC(=O)c1c(N2C(=O)CC(Sc3ccccc3C(=O)O)C2=O)sc2c1CCCC2 (configuration not stated) | active: 15.8 µM | – |
| Cc1cccc(NC(=O)c2ccc(N(C)C)cc2)c1C | – | inactive: 51.2% |
| CCN(CC)S(=O)(=O)c1ccc2c(c1)c(=O)c(C(=O)NCCCN(C)c1ccccc1)cn2C | – | inactive: -26.1% |
| N=C1S/C(=C\c2ccc(-c3ccccc3C(=O)O)o2)C(=O)N1c1ccc2c(c1)OCO2 | active: 14.1 µM | – |

| SMILES | Potency | activity change, negative = inhibition |
| --- | --- | --- |
| CCOc1cc(-c2ccc(OC)c(OC)c2)cc(=O)c2c(C)oc(C)c12 | inconclusive: 31.6 µM [inhibitor, partial curve, poor fit] | – |
| COc1ccccc1-c1nc(NCCN2CCOCC2)c2ccccc2n1 | inconclusive: 31.6 µM [inhibitor, partial curve] | – |
| COc1ccc(CCN2C(=O)CC(NNc3ccc([N+](=O)[O-])cc3)C2=O)cc1OC (configuration not stated) | inconclusive: 44.7 µM [inhibitor, partial curve, poor fit] | – |
| Cc1ccc([C@H]2N[C@]3(CCCN(Cc4ccc(F)cc4)C3=O)[C@H]3C(=O)N(C)C(=O)[C@@H]23)cc1 | inconclusive: 3.16 µM [inhibitor, full curve] | – |
| O=C(NCCC1CCCC1)c1cccc2ncccc12 | – | inactive: 3.46% |
| ClC1(Cl)CC1CSc1nc2ccccc2[nH]1 (configuration not stated) | – | inactive: -12.4% |
| CCOc1ccc(C(=O)N(CCN(C)C)CC(=O)OC(C)(C)C)cc1 | – | inactive: -10.9% |
| Cc1ccc(-c2cc(C(=O)O)c3cccc(Cl)c3n2)cc1 | inconclusive: 35.5 µM [inhibitor, partial curve, poor fit] | – |
| C/C(=N\N=C(N)N)C1CCCCCCCCCCC1 | inconclusive: 44.7 µM [inhibitor, partial curve, poor fit] | – |
| COC(=O)CCNC(=O)N1CCc2[nH]cnc2C1c1cc(Cl)ccc1F (configuration not stated) | – | inactive: 22.9% |
| COc1cccc2cc(-c3nc(-c4ccc(C)cc4)c(C)s3)c(=O)oc12 | – | inactive: -24.3% |
| COc1ccc(NC(=O)CN2CCN(S(=O)(=O)c3ccc(Cl)cc3)CC2)cc1Cl | – | inactive: 383% |
| Cc1c(Cc2ccccc2)c(=O)n2c([nH]c3ccccc32)c1C#N | – | inactive: -17% |
| Cc1ccc(C)c(/C=C/c2onc(C)c2S(=O)(=O)N2CCCC(C(=O)NC3CCCC3)C2)c1 (configuration not stated) | inconclusive: 112 µM [inhibitor, single point] | – |
| COc1cccc(-c2sc3ccc(OC)cc3c2-c2ccc(C(N)=O)cc2)c1 | – | inactive: 17.7% |
| COc1cccc(N2CCN(C(=O)c3ccc(CS(=O)c4ccc(Cl)cc4)o3)CC2)c1 (configuration not stated) | inconclusive: 100 µM [inhibitor, partial curve, poor fit] | – |
| NC(=NCc1ccc(Cl)cc1Cl)NC(=O)c1nc(Cl)c(N)nc1N | inconclusive: 100 µM [inhibitor, single point] and inconclusive: 100 µM [inhibitor, partial curve, poor fit] | – |
| O=C(Nc1nnc(C2CCCCC2)s1)C1CCN(C(=O)c2cccc(F)c2)CC1 | – | inactive: -6.03% |
| O=C(NCc1cc2n(n1)CCN(C1CCCCC1)C2)c1cnn2ccccc12 | – | inactive: 26.1% |
| COc1ccc2c(c1OC)C(=O)N(c1cccc(C)c1)C2 | – | inactive: -18.1% |
| OC(COCc1ccco1)CN1CCN(c2ccccc2)CC1 (configuration not stated) | inconclusive: 1.58 µM [inhibitor, full curve, poor fit] | – |
| Cc1nn(C)c(C)c1CCC(=O)N1CCCOCCNC(=O)CC1 | – | inactive: 36.3% |
| O=C1[C@@H](Oc2ccccc2)[C@@H](c2cnc3ccccc3c2)N1c1ccccc1 | – | inactive: 14.9% |
| CCOC(=O)C1(C)C=C(Nc2ccc(C(=O)O)cc2)C(=O)N1c1ccc(C(=O)O)cc1 (configuration not stated) | inconclusive: 100 µM [inhibitor, partial curve, poor fit] | – |
